From PMC12040169 (PLOS Biology, 2025)
The list shows a part of the results.

Each compound was assayed on T1, CTL2-GFP (C. trachomatis L2/434/Bu, GFP-expressing). Conditions: bulk GFP, single well; 28.5 h, 10 µM; inhibitor.
T1 construct: L2/434/Bu, GFP-expressing
Parameters: species or system HeLa; Intracellular C. trachomatis growth in HeLa cells, bulk GFP fluorescence relative to DMSO

Compound | % of control remaining [%]
O=C(CSc1ncnc2c1oc1ccccc12)NCc1ccccc1 [CBK287397] | 108.21
Cc1cc(C(=O)Nc2cccc(-c3nc4cc(Cl)ccc4o3)c2C)ccc1[N+](=O)[O-] [CBK262949] | 106.269
Cc1ccc(C#N)cc1S(=O)(=O)NC(=O)CC1CCOc2ccccc21 (stereo not shown) [CBK306476] | 98.3735
CN(CC(=O)N1CCN(Cc2ccccc2)CC1)S(=O)(=O)c1ccc2ccccc2c1 [CBK267117] | 141.861
CSCCC(=O)N1CCC2(CCN(Cc3ccccc3)CC2)C1 [CBK136757] | 107.621
Cc1n[nH]c(C)c1CCCCCOc1ccccc1 [CBK027211C] | 133.281
CC(=O)Nc1ccc(Sc2cnccn2)cc1 [CBK085838] | 92.5588
O=C(c1ccncc1)N1C2CCC1CC(O)(c1ccc(F)cc1)C2 (stereo not shown) [CBK283545] | 102.889
N#CCCCN1CCC(Oc2nccnc2OC2CCCCC2)CC1 [CBK082871T] | 117.468
O=C(NC(c1ccc(F)cc1)c1ccc2ccccc2n1)C1CCN(CCCN2CCOCC2)CC1 (stereo not shown) [CBK148118] | 146.138
c1cc(CCCOc2cc(N3CCCC3)ncn2)ccn1 [CBK115897] | 77.5136
Cc1ccn2ncc(C(=O)N3CCCCCC3c3ccco3)c2n1 (stereo not shown) [CBK304015] | 125.355
Cc1cc(COc2nc3ccccc3nc2NCCC(C)O)no1 (stereo not shown) [CBK173999] | 109.343
Clc1ccc(-c2c[nH]c([C@@H]3COCCN3Cc3csnn3)n2)cc1 [CBK289309] | 149.924
Cc1ccc(-c2nccnc2OCCN2C(=O)c3ccccc3C2=O)c(C)c1 [CBK106981] | 107.187
N#Cc1c(NC(=O)CSc2nnc(-c3ccc(Cl)cc3)o2)oc(-c2ccccc2)c1-c1ccccc1 [CBK267655] | 113.891
COc1cc2c(cc1OC)C(CCN1CCN(c3ccccc3C)CC1)OCC(C)(C)C2 (stereo not shown) [CBK024043C] | 100
Oc1ccc(-c2n[nH]cc2-c2cnn(-c3ccccc3)c2)c(O)c1O [CBK266948] | 109.653
O=C(c1c(F)cccc1F)N1CCCC2(CCN(Cc3ccccc3)C2)C1 (stereo not shown) [CBK136886] | 61.5363
Cc1cc(C)cc(NC(=O)N2CCN(c3nccnc3NS(C)(=O)=O)CC2)c1 [CBK048877] | 123.02
O=C1CCc2cc(S(=O)(=O)Nc3ccc(OCc4ccccc4)cc3)ccc2N1 [CBK286365] | 98.9413
CCCc1[nH]nc(O)c1Cc1c(F)cccc1[N+](=O)[O-] [CBK075029] | 89.9953
CC(C)(O)C#Cc1ccc(C(=O)NCCCNC(=O)c2ccc(C#CC(C)(C)O)s2)s1 [CBK267142] | 128.224
COc1ccc(C)cc1S(=O)(=O)N1CCCC(C(=O)NCc2ccccn2)C1 (stereo not shown) [CBK268503] | 156.029
Cc1cc2oc(=O)c3c(c2cc1C)CCN(C)C3 [CBK017803] | 130.785
CC(C)c1nnc(SCc2ccc(CSc3nnc(C(C)C)n3N)cc2)n1N [CBK267911] | 129.205
CC1CC1C(=O)N(C)C1CCN(c2ncnc3ccccc23)CC1 (stereo not shown) [CBK304972] | 118.552

Compound | % of control remaining [%]
CC(=O)Oc1ccc(C(=O)Nc2ccc3c(c2)C(=O)N(CCC(=O)O)C3=O)cc1 [CBK265997] | 86.0722
O=c1cccc2n1CC1CC2CN(Cc2cccc(OCc3ccccc3)c2)C1 (stereo not shown) [CBK262426] | 80.2256
O=C(CCn1cnc2ccccc2c1=O)Nc1ccc(S(=O)(=O)N2CCCC2)cc1 [CBK267642] | 115.796
COc1ccc(-c2nc3cc(C(C)C)ccc3o2)cc1NC(=O)Cc1ccc(Cl)cc1 [CBK266409] | 154.587
COc1ccc(-c2cnc(N)c(N[C@@H](C)c3ccccc3)n2)c(OC)c1OC [CBK063763] | 132.877
CC(c1nc(N)nc(N(C)C)n1)N(C)CCOc1ccccc1F (stereo not shown) [CBK306053] | 100.417
O=C(CSc1nnc(SCc2cccc3ccccc23)s1)Nc1ccccc1C(F)(F)F [CBK267575] | 117.226
COc1nccc(N2CCC3(CCC(=O)N(CCO)C3)CC2)c1C#N [CBK307255] | 109.935
Cc1cc(N)n(-c2nc3c(cnn3-c3ccc(C)c(C)c3)c(=O)[nH]2)n1 [CBK287646] | 147.874
COc1ccc(CNC(=O)N(C)C2CCN(C)C2)cc1OC (stereo not shown) [CBK156020] | 157.316
CCOC(=O)CSc1nc2ccccc2nc1C(F)(F)F [CBK107200] | 104.987
O=C(c1csc(-c2ccncc2)n1)N1CCN(c2ccccc2)CC1 [CBK288590] | 112.897
Cc1oc(-c2cccc(Cl)c2)cc1C(=O)O [CBK045856] | 162.404
COCOc1ccc(-c2nc(-c3cccnc3)cnc2N)cc1 [CBK063999] | 165.306
COc1ccc(NC(=O)c2ccc(-c3nnn[nH]3)cc2)cc1Cl [CBK295139] | 134.996
CCOc1cc(OCC)cc(C(=O)N2CCC3(CC2)CC(=O)c2cc(OCC)ccc2O3)c1 [CBK168013] | 119.497
O=C(C1CCCN(CC(O)c2cccs2)C1)N1CCCCCC1 (stereo not shown) [CBK282117] | 134.98
CN(C)CCN(C)C(=O)Cc1csc(-c2cccc(Cl)c2)n1 [CBK282176] | 93.0047
Cc1nn(C)c(C)c1CN(C)S(=O)(=O)Cc1ccc(F)cc1 [CBK281590] | 134.746
O=C(O)c1ccc(-c2cnc3ccccc3n2)cc1 [CBK288010] | 90.8372
Cc1ncsc1CCN(C)C(C)C(=O)Nc1nccs1 (stereo not shown) [CBK307709] | 101.51
Cc1ccc(CC(=O)N2CC(=O)Nc3ccccc32)cc1 [CBK287670] | 146.427
Cc1cccc(C(=O)N[C@@H](C)Cn2nc3c(cc2=O)CCCC3)c1 [CBK284563] | 149.574
CC(C)(C)c1cc(CNCCS(=O)(=O)O)c(O)c(C(C)(C)C)c1 [CBK261098] | 104.774
O=C(Nc1cc(-c2nc3ncccc3o2)ccc1Cl)c1ccc2c(c1)OCCO2 [CBK264105] | 117.945
O=C(COc1ccccc1)n1nc(-c2ccco2)nc1NCc1cccs1 [CBK269145] | 131.041
CCN1C(=O)c2cccc3c(S(=O)(=O)N4CCCC4C(=O)O)ccc1c23 (stereo not shown) [CBK267169] | 113.607

Taken from above (20 entries):
Compound | % of control remaining [%]
O=c1cccc2n1CC1CC2CN(Cc2cccc(OCc3ccccc3)c2)C1 (stereo not shown) [CBK262426] | 80.2256
O=C(CCn1cnc2ccccc2c1=O)Nc1ccc(S(=O)(=O)N2CCCC2)cc1 [CBK267642] | 115.796
COc1ccc(-c2nc3cc(C(C)C)ccc3o2)cc1NC(=O)Cc1ccc(Cl)cc1 [CBK266409] | 154.587
COc1ccc(-c2cnc(N)c(N[C@@H](C)c3ccccc3)n2)c(OC)c1OC [CBK063763] | 132.877
CC(c1nc(N)nc(N(C)C)n1)N(C)CCOc1ccccc1F (stereo not shown) [CBK306053] | 100.417
O=C(CSc1nnc(SCc2cccc3ccccc23)s1)Nc1ccccc1C(F)(F)F [CBK267575] | 117.226
COc1nccc(N2CCC3(CCC(=O)N(CCO)C3)CC2)c1C#N [CBK307255] | 109.935
Cc1cc(N)n(-c2nc3c(cnn3-c3ccc(C)c(C)c3)c(=O)[nH]2)n1 [CBK287646] | 147.874
COc1ccc(CNC(=O)N(C)C2CCN(C)C2)cc1OC (stereo not shown) [CBK156020] | 157.316
CCOC(=O)CSc1nc2ccccc2nc1C(F)(F)F [CBK107200] | 104.987
O=C(c1csc(-c2ccncc2)n1)N1CCN(c2ccccc2)CC1 [CBK288590] | 112.897
Cc1oc(-c2cccc(Cl)c2)cc1C(=O)O [CBK045856] | 162.404
COCOc1ccc(-c2nc(-c3cccnc3)cnc2N)cc1 [CBK063999] | 165.306
COc1ccc(NC(=O)c2ccc(-c3nnn[nH]3)cc2)cc1Cl [CBK295139] | 134.996
CCOc1cc(OCC)cc(C(=O)N2CCC3(CC2)CC(=O)c2cc(OCC)ccc2O3)c1 [CBK168013] | 119.497
O=C(C1CCCN(CC(O)c2cccs2)C1)N1CCCCCC1 (stereo not shown) [CBK282117] | 134.98
CN(C)CCN(C)C(=O)Cc1csc(-c2cccc(Cl)c2)n1 [CBK282176] | 93.0047
Cc1nn(C)c(C)c1CN(C)S(=O)(=O)Cc1ccc(F)cc1 [CBK281590] | 134.746
O=C(O)c1ccc(-c2cnc3ccccc3n2)cc1 [CBK288010] | 90.8372
Cc1ncsc1CCN(C)C(C)C(=O)Nc1nccs1 (stereo not shown) [CBK307709] | 101.51

Continued:

Compound | % of control remaining [%]
CC(=O)NCCNC(=O)c1cnc(-c2ccc(Cl)cc2)c(-c2ccc(O)cc2)c1 [CBK036647] | 171.391
CCOc1cccc(CNn2cnnc2)c1OCc1ccccc1 [CBK265824] | 114.337
Cc1cc(Cl)cc(C)c1OCCN1CCNCC1 [CBK266057G] | 128.962
CN1CCC(N(C)Cc2ccccc2[N+](=O)[O-])CC1 [CBK261565] | 118.792
CC(c1ccccc1)N1Cc2cccc(C(=O)O)c2C1=O (stereo not shown) [CBK291252] | 138.899
COCCNC(=O)N(CCC#N)C1CCCCC1 [CBK156358] | 116.295
Cc1nnc(SCc2nnc(-c3ccccc3)o2)n1Cc1ccccc1 [CBK269743] | 121.559
O=C1CCc2cc(S(=O)(=O)Nc3ccccc3Cc3ccccc3)ccc2N1 [CBK286369] | 83.4633
Cc1ccc(C(C)C(=O)N2CCC(O)(c3ccccn3)CC2)cc1 (stereo not shown) [CBK283787] | 127.5
COC1CCCN(Cc2cncn2C2CCCCC2)C1 (stereo not shown) [CBK306542] | 121.162
O=c1cc(CN2CCOCC2)oc2c(OCc3nnnn3C3CC3)cccc12 [CBK007813] | 100.682
Cc1nc2c(C(=O)NCCCN3CCCC3=O)cnn2c(C)c1Cc1cccnc1 [CBK162151] | 109.543
O=S(=O)(Cc1ccc(Cl)cc1Cl)N1CCOCC1 [CBK058967] | 100.701
CN1CCN(c2cc(C(F)(F)F)c3scc(C(=O)NCCC4=CCCCC4)c3n2)CC1 [CBK028474] | 106.98
Nc1nnc(Sc2nc3cc(Cl)c(Cl)cc3nc2N2CCCC2)s1 [CBK115267] | 84.3003
O=C(NC(c1ccc(F)cc1)c1cnccn1)C1CCN(S(=O)(=O)c2cccc(Cl)c2)CC1 (stereo not shown) [CBK060013] | 170.558
O=C(Nc1ccc(Cl)cc1)c1ccc(N2CCN(Cc3ccccc3)CC2)c([N+](=O)[O-])c1 [CBK264422] | 100
OC1(Cn2ccc3ncccc32)CCN(Cc2cccs2)CC1 [CBK284783] | 127.151
O=C(O)/C=C/c1ccccc1OCC(=O)NC1CCCCC1 [CBK286900] | 99.8523
COc1cccc(Cn2c(=O)n(C)c3ncccc32)c1 [CBK282391] | 147.195
Cc1oc(C(=O)N2CCc3sccc3C2c2ccccc2)cc1CN1CCOCC1 (stereo not shown) [CBK285566] | 114.973
COc1ccc(CCC(C)NC2CCCc3c2[nH]c2ccc([N+](=O)[O-])cc32)cc1 (stereo not shown) [CBK262876] | 38.8322
O=C(NC(C(=O)N/N=C/c1coc2ccccc2c1=O)c1n[nH]c(=O)c2ccccc12)c1ccccc1 (stereo not shown) [CBK262847] | 99.0221
Oc1cccc(OCCOc2nccc(C(F)(F)F)n2)c1 [CBK115903] | 109.637
O=C(O)C1CSC(c2ccc(-c3cccc(Cl)c3)o2)N1 (stereo not shown) [CBK286997] | 113.139
